In PubChem BioAssay AID540276 (National Center for Advancing Translational Sciences (NCATS), 2011):
“And” between values parts separate entries of the source, which are not always exact repeats. Equal values may be shown once. Among all 300,000 compounds or so, about 5,400 (1.8%) were called active. Inconclusive results, whose numbers are uncertain, are shown with a selection of clear calls. Calls follow the shape of the full dose curve; tested in HEK293 cells. Where the call is inconclusive, the potency comes from a doubtful curve fit. Some structures have more than one record in an assay (separate samples or runs), and their calls can disagree.

Assay: qHTS for inhibitors of binding or entry into cells for Marburg Virus
Details: Marburg virus pseudotyped entry inhibition, cell reporter; activity change, negative = inhibition: at 37.8 µM (top of the series) unless noted
% is scaled to controls: 0 for no effect and ±100 for the full control effect; potency is read from the fitted curve at half-maximal effect.

Row | Structure (SMILES) | Potency | activity change, negative = inhibition
1 | Cc1ccc(-n2c(O)c(/C=N/NC(=O)C3COc4ccccc4O3)c3ccccc3c2=O)cc1 (stereo not given) | inconclusive: 18.4 µM [inhibitor, single point] | –
2 | O=C(Nc1cc(Br)ccc1O)c1cc(-c2ccco2)on1 | – | inactive: 16.6% [at 46.1 µM]
3 | CCc1nnc(NC(=O)c2ccc(Br)c(S(=O)(=O)N3CCOCC3)c2)s1 | – | inactive: 3.05% [at 46.1 µM]
4 | O=C(COc1ccccc1)Nc1ccccc1F | – | inactive: 17.1%
5 | NC(=O)Nc1ccc(C(=O)OCC(=O)c2c[nH]c3ccccc23)cc1 | inconclusive: 12.6 µM [activator, single point] | –
6 | COc1ccc(C2CC(c3cccs3)=NN2C(=O)CSc2nc(=O)n3ccc(C)cc3n2)cc1 (stereo not given) | inconclusive: 0.447 µM [inhibitor, single point] | –
7 | CC(C)(C)CC(=O)Nc1ccccc1N1CCN(c2ccc(F)cc2)CC1 | active: 7.94 µM | –
8 | C=CCNc1nc(N2CCOCC2)c(C#N)c2c1CN(C)CC2 | inconclusive: 31.6 µM [inhibitor, single point] | –
9 | CC(C)C(=O)NCCn1ccc2ccccc21 | inconclusive: 15.8 µM [inhibitor, single point] | –
10 | N#CC1=C(SCC(=O)Nc2cccc3cccnc23)NC(=O)C(C#N)C12CCCCC2 (stereo not given) | – | inactive: 2.73%
11 | O=C(NCC(c1ccco1)N1CCCCC1)c1ccc(NS(=O)(=O)c2ccc(F)cc2)cc1 (stereo not given) | inconclusive: 10 µM [inhibitor, partial curve, poor fit] | –
12 | NC(=Nc1ccc(Cl)cc1)c1ccccc1 | inconclusive: 7.94 µM [activator, partial curve, poor fit] | –
13 | CCc1ccc(OCC(=O)NNC(=O)Cc2cccs2)cc1 | – | inactive: 4.08%
14 | CCc1ccc(NC(=O)c2c(Cl)nc(C)c(Cl)c2C)cc1 | inconclusive: 1.26 µM [inhibitor, full curve] | –
15 | CCSC1=N/C(=C\c2ccc(OC)cc2)C(=O)N1 | – | inactive: -7.53%
16 | Cc1cccc(NC(=O)Nc2ccc(C)cc2Br)c1 | – | inactive: 5.46%
17 | CC(=O)c1cc2c(C)c(C(=O)c3ccccc3)oc2cc1O | inconclusive: 13 µM [activator, partial curve, poor fit] | –
18 | Cc1ccc(-c2nc(Nc3ccccc3)n[nH]2)cc1 | inconclusive: 10 µM [inhibitor, single point] | –
19 | O=C1CN(C(=O)C2CCCCC2)C(c2ccccc2)c2cc(F)ccc2N1 (stereo not given) | – | inactive: 20.6% [at 46.1 µM]
20 | CCOc1ccc(C2c3c(oc4ccc(C)cc4c3=O)C(=O)N2c2nc(C)c(C)s2)cc1OC (stereo not given) | – | inactive: -18.1% [at 46.1 µM]
21 | CCOC(=O)c1cnc2ccc(OCC)cc2c1N1CCN(c2cccc(Cl)c2)CC1 | – | inactive: 11.7% [at 46.1 µM]
22 | O=C(CCc1ccccc1Cl)Nc1cccc(S(=O)(=O)N2CCCC2)c1 | inconclusive: 28.2 µM [inhibitor, single point] | –
23 | Cc1ccccc1-c1nc(CS(=O)CC(=O)NCCc2ccc(Cl)cc2)c(C)o1 (stereo not given) | inconclusive: 11.2 µM [inhibitor, single point] | –
24 | CCOC(=O)C1(Cc2ccccc2C(F)(F)F)CCN(Cc2ccon2)CC1 | inconclusive: 17.8 µM [inhibitor, single point] | –

Row | Structure (SMILES) | Potency | activity change, negative = inhibition
25 | O=C1CC(c2ccccc2)Cc2[nH]c(=O)c(-c3nc(-c4ccc(F)cc4)cs3)cc21 (stereo not given) | inconclusive: 5.62 µM [inhibitor, single point] | –
26 | CCN(CC)CCNC(=O)c1ccc(NC(=O)c2cc(S(=O)(=O)N3CCCCC3)ccc2N2CCOCC2)cc1 | inconclusive: 11.2 µM [inhibitor, partial curve] | –
27 | Cc1cc2nc(C3CCN(Cc4nnnn4Cc4ccccc4)CC3)[nH]c2cc1C | inconclusive: 0.58 µM [inhibitor, partial curve, poor fit] | –
28 | CN(Cc1ccccc1)c1oc(-c2ccco2)nc1C#N | – | inactive: -3.48%
29 | Cc1cc(N2CCN(C(=O)c3ccco3)CC2)n2ncc(-c3ccccc3)c2n1 | inconclusive: 20 µM [inhibitor, partial curve, poor fit] | –
30 | COc1ccc(-c2cc(C(F)(F)F)nc(S(=O)(=O)CCC(=O)N3CCOCC3)n2)cc1 | inconclusive: 20 µM [inhibitor, single point] | –
31 | COc1ccc(S(=O)(=O)NNC(=O)C2Cc3c(ccc4ccccc34)O2)cc1 (stereo not given) | – | inactive: -8.68%
32 | CC(C)c1ccc(NC(=O)C(c2ccc3c(c2)OCO3)N2CCC3(CC2)OCCO3)cc1 (stereo not given) | inconclusive: 25.1 µM [inhibitor, single point] | –
33 | Cc1ccc(CN2C(=O)COc3cc(NS(C)(=O)=O)ccc32)cc1 | inconclusive: 35.5 µM [activator, partial curve, poor fit] | –
34 | COc1ccc2[nH]c3c(NCc4ccco4)ncnc3c2c1 | inconclusive: 29.1 µM [inhibitor, single point] | –
35 | Cc1nc(SCC(=O)Nc2cccc(S(=O)(=O)N3CCOCC3)c2)nc(C)c1C | inconclusive: 0.562 µM [inhibitor, partial curve, poor fit] | –
36 | COc1ccccc1OCCCn1c(=O)oc2ccccc21 | inconclusive: 0.398 µM [activator, partial curve, poor fit] | –
37 | Cc1ccc(C2(c3noc(CN(C)Cc4cnn(C)c4)n3)CCCC2)cc1 | inconclusive: 11.2 µM [inhibitor, single point] | –
38 | N#Cc1ccccc1S(=O)(=O)N1CCN(C(=O)C2CCC2)CC1 | – | inactive: -3.5%
39 | N#CCCn1cc(/C=N/O)c(-c2ccc(-c3ccccc3)cc2)n1 | inconclusive: 20 µM [inhibitor, single point] | –
40 | Cc1cc(C)cc(OCC(=O)Nc2ccccc2C(=O)NCc2ccco2)c1 | inconclusive: 11.2 µM [inhibitor, partial curve, poor fit] | –
41 | COc1ccc(CN(CCC(c2ccc(F)cc2)C2CCOC(C)(C)C2)C(=O)c2ccco2)cc1 (stereo not given) | inactive and active: 7.94 µM | –
42 | CCOC(=O)c1sc(Nc2nc3c(OC)cccc3s2)cc1C | inconclusive: 35.5 µM [inhibitor, single point] | –
43 | Cc1ccc(NC(=O)c2sc3nc(CCl)[nH]c(=O)c3c2C)c(C)c1 | – | inactive: -28.4% [at 46.1 µM]
44 | CC(C)c1ccc(CNc2nc(-c3ccco3)nn2S(=O)(=O)c2ccccc2)cc1 | inconclusive: 8.91 µM [activator, partial curve] | –
45 | Cc1cc(C)nc(NS(=O)(=O)c2ccc(NC(=O)CSc3ncn[nH]3)cc2)n1 | inconclusive: 0.562 µM [inhibitor, full curve, poor fit] | –
46 | COc1ccc(CN2CCCCCC2)c(C)c1C | inconclusive: 20.6 µM [inhibitor, single point] | –
47 | Cc1ccc2nc(CSc3nnc4ccccn34)cc(=O)n2c1 | – | inactive: 10.5% [at 46.1 µM]
48 | O=c1[nH]c(=S)n(C2CC2)c(O)c1/C=N/Nc1cccc2ccccc12 | – | inactive: -0.838%

Record cards, as listed above.
N#Cc1ccccc1S(=O)(=O)N1CCN(C(=O)C2CCC2)CC1 is entered as activity change, negative = inhibition: inactive: -3.5%
Cc1ccc2nc(CSc3nnc4ccccn34)cc(=O)n2c1 is entered as activity change, negative = inhibition: inactive: 10.5% [at 46.1 µM]

(more compounds)

Row | Structure (SMILES) | Potency | activity change, negative = inhibition
49 | CCCS(=O)(=O)NCCc1cc2ccc(C)cc2[nH]c1=O | – | inactive: -3.68%
50 | CCN(CCn1cccn1)C(=O)C1CCC(=O)N(CC2CCCCC2)C1 (stereo not given) | – | inactive: -23.3% [at 46.1 µM]
51 | O=C(/C=C/c1ccccc1)Nn1c(-c2cccs2)nc2ccccc2c1=O | – | inactive: -2.61%
52 | CC(C)N1CSC(=S)N(Cc2ccccc2)C1 | – | inactive: 0.669%
53 | COc1cc(-c2nc3ccccn3c2/N=C/c2cc(OC)c(O)cc2Cl)ccc1O | inconclusive: 10 µM [activator, partial curve, poor fit] | –
54 | C/C(=N\Nc1ncc(Cl)cc1Cl)c1ccc(OC(F)F)cc1 | – | inactive: 13.4%
55 | Cc1cccc(C(=O)Nc2ccccc2SCC(=O)Nc2ccc(C)c(Cl)c2)c1 | inconclusive: 3.55 µM [inhibitor, single point] | –
56 | Cc1csc2nc(COc3ccc(NC(=O)COc4ccc(F)cc4)cc3)cc(=O)n12 | – | inactive: -13.4% [at 46.1 µM]
57 | Cc1cc(Cl)c(OCCCNC2CCCC2)c(Br)c1 | inconclusive: 7.08 µM [inhibitor, partial curve, poor fit] | –
58 | Cc1ccc(NC(=O)Cn2cc(S(=O)(=O)N3CCN(c4ccccc4F)CC3)c3ccccc3c2=O)cc1F | inconclusive: 35.5 µM [inhibitor, partial curve, poor fit] | –
59 | O=C(c1ccco1)N1CCCC(c2nc3c(nnn3Cc3cccc(Cl)c3)c(=O)[nH]2)C1 (stereo not given) | inconclusive: 35.5 µM [inhibitor, single point] | –
60 | CCOC(=O)c1[nH]cnc1C(=O)NC(C)C | inconclusive: 0.355 µM [inhibitor, full curve] | –
61 | c1ccc(-c2nnc3sc(-c4csc5c4CCCC5)nn23)cc1 | inconclusive: 11.2 µM [inhibitor, partial curve, poor fit] | –
62 | CC(=O)Nc1ccc(S(=O)(=O)N2CCSC2c2ccc(Cl)cc2)cc1 (stereo not given) | inconclusive: 35.5 µM [inhibitor, partial curve, poor fit] | –
63 | Cc1ccc2sc(N(CCCN(C)C)C(=O)c3ccc(S(=O)(=O)N(C)C4CCCCC4)cc3)nc2c1C | inconclusive: 22.4 µM [inhibitor, single point] | –
64 | CCOc1nc(NCCN2CCOCC2)nc(NC(C)C)n1 | inconclusive: 1.26 µM [activator, single point] | –
65 | Cc1ccccc1Nc1nc(N)nc(COC(=O)c2cccc(S(=O)(=O)N(C)C)c2)n1 | – | inactive: 6.89%
66 | CCc1ccc2oc(-c3cc(N)ccc3Cl)nc2c1 | – | inactive: -27%
67 | COc1ccc(C(CNC(=O)c2ccc(NS(=O)(=O)c3ccc(F)c(C)c3)cc2)N2CCOCC2)cc1 (stereo not given) | inconclusive: 3.98 µM [inhibitor, partial curve, poor fit] | –
68 | Cc1cc(C)c(OCCNCc2ccccc2)c(C)c1 | inconclusive: 20 µM [inhibitor, partial curve, poor fit] | –
69 | CN=C1c2cc3cc(OC)ccc3n2CCN1Cc1ccccc1 | active: 11.2 µM | –
70 | COc1ccc(CCNC(=O)c2c(C)nc3ccccn23)cc1 | inconclusive: 6.31 µM [inhibitor, single point] | –

2 of the compounds above, tab-delimited:
Row	Structure (SMILES)	Potency	activity change, negative = inhibition
68	Cc1cc(C)c(OCCNCc2ccccc2)c(C)c1	inconclusive: 20 µM [inhibitor, partial curve, poor fit]	–
69	CN=C1c2cc3cc(OC)ccc3n2CCN1Cc1ccccc1	active: 11.2 µM	–
